According to US9579330B2, “Use and application regimen of a pharmaceutical composition containing levonorgestrel and a COX inhibitor for on-demand contraception” (priority 2012, dated 2017):
Where two headings read alike, the source gives them in different places.

Test system: PEG2 synthesis in plasma

Question: Which results are given for `COc1ccc2cc([C@H](C)C(=O)O)ccc2c1` [Naproxen, naproxen]?
Answer: PEG2 synthesis in plasma (in words) (administration of naproxen): strongly inhibits; Prostaglandin E2 in the plasma, average value (sample at 18:00, 2 hours after oral 20 mg/kg naproxen (around 16:00)): 21.5 pg/500 μg tissue; Prostaglandin E2 in the plasma, average value (sample at 20:00, 4 hours after oral 20 mg/kg naproxen (around 16:00)): 23.3 pg/500 μg tissue; Prostaglandin E2 in the plasma, average value (sample at 22:00, 6 hours after oral 20 mg/kg naproxen (around 16:00)): 20.5 pg/500 μg tissue
